PubChem BioAssay AID588497 (NMMLSC, 2011)
Several values for one entry are separate records, joined by “and”; a condition that tells them apart may be missing. Identical values can stand only once. Among all 360,000 compounds or so, about 780 (0.22%) were called active. The shares of active, inactive and inconclusive entries below differ from those in the screen. No stated cut-off is given here; in the data, active means inhibition above about 35% (passing the limit was not always enough); inconclusive means no clear call, values can overlap the other calls.

What follows are molecules tested on Botulinum neurotoxin type F light chain protease (Clostridium botulinum) (assay: BoNT/F light chain protease inhibitors, primary screen, biochemical, flow cytometry, MLPCN library (AID 588497; further: plate controls were buffer without enzyme for full effect and enzyme alone for no effect)). Settings: Multiplex microsphere protease cleavage assay, at 10 µM, stronger effect = higher value.
`O=S(=O)(c1ccc2ncn(O)c2c1)N1CCOCC1` was tested, and the inhibition was inactive: -2.9%.
In the case of `CN1CCC2(CC1)NC(=O)NC2=O`, the inhibition is reported as inconclusive: 9.6%.
With `CCCn1nnnc1NCc1ccc(OC)cc1OC` the inhibition was inactive: 6.3%.
`COc1cc(OC)cc(C(=O)NN2CCOCC2)c1` was tested, and the inhibition was inactive: -8.8%.
For `Cc1ccccc1OCC(=O)OCC(=O)c1ccc(OC(=O)c2ccccc2)cc1`, the inhibition was inactive: 2.7%.
In the case of `Cc1ccc(C(=O)C2C(c3cccs3)NC(=O)NC2(O)C(F)(F)F)cc1` (centres undefined), the inhibition is reported as inconclusive: 18.5%.
In the case of `Cc1ccc(Nc2cc(C)c(O)c(C)c2)cc1`, the inhibition is reported as inconclusive: -44.2%.
With `O=C(Nc1cccc(C(F)(F)F)c1)c1ccc(-c2ccc(F)c(F)c2)c2ccoc12` the inhibition was inactive: -3.5%.
With `CCOc1ccc2[nH]c3c(NCCO)ncnc3c2c1` the inhibition was inactive: 2.4%.
In the case of `CCN(CC)CCCN(Cc1cc2cc3c(cc2[nH]c1=O)OCO3)C(=S)NCCCN(C)C`, the inhibition is reported as inconclusive: 11.1%.
In the case of `Cn1c(=O)c2cc3ccccc3nc2n(C)c1=O`, the inhibition is reported as inconclusive: 7.1%.
`O=[N+]([O-])c1ccccc1S(=O)(=O)N1CCN(C2CCN(Cc3ccccc3)CC2)CC1` was tested, and the inhibition was inactive: -4.8%.
With `CCn1c(SCC(=O)N/N=C(/C)c2ccncc2)nc2ccccc21` the inhibition was inconclusive: 10.4%.
In the case of `CC1(C(=O)Nc2cnc3ccccc3c2)CCN1Cc1ccccc1Cl` (centres undefined), the inhibition is reported as inactive: -1.5%.
`CS(=O)(=O)c1ccc(N2CCN(S(=O)(=O)c3cccs3)CC2)c([N+](=O)[O-])c1` was tested, and the inhibition was inconclusive: 1.3%.
For `Cc1cc(N/N=C/c2ccccc2F)nc(NCc2ccccc2)n1`, the inhibition was inconclusive: 70.4%.
`O=C(COc1ccc(S(=O)(=O)N2CCCCC2)cc1)Nc1ccccc1F` was tested, and the inhibition was inactive: -10.7%.
For `c1ccc(CCNCCCOc2cccc3ccccc23)cc1`, the inhibition was inconclusive: -31.1%.
`CCCCN1C(=O)NC(NC(C)=O)(C(F)(F)F)C1=O` (centres undefined) was tested, and the inhibition was inconclusive: -5%.
`COc1cc2[nH]cc(C(=O)NCc3cccs3)c(=O)c2cc1OC` was tested, and the inhibition was inactive: -6%.
`O=c1cc(C(F)(F)F)[nH]c2c(C(F)(F)F)cccc12` was tested, and the inhibition was inactive: -7.9%.
For `COc1cccc(N2CC(C)Cn3c2nc2c3c(=O)[nH]c(=O)n2C)c1` (centres undefined), the inhibition was inconclusive: -2.8%.
With `O=C1C2=C(CCCC2)C(=O)N1CNc1ccccc1` the inhibition was inconclusive: -24.9%.
In the case of `Cn1c(SCc2ccccc2)nnc1-c1ccc2c(c1)OCO2`, the inhibition is reported as inactive: -11.3%.
`CSc1nc(O)c(C(c2ccc(C)cc2)c2c(O)nc(SC)[nH]c2=O)c(=O)[nH]1` was tested, and the inhibition was inconclusive: -3.7%.
With `CC(C)(C)NC(=O)CSc1ncccc1-c1nc2ccccc2[nH]1` the inhibition was inconclusive: -40.6%.
With `O=C(c1ccccc1)N1CCC2(CC1)OCCO2` the inhibition was inactive: -6.7%.
With `Cn1ncc2c(c(SCc3ccc(Cl)cc3Cl)nn2C)c1=O` the inhibition was inconclusive: 180%.
In the case of `Cc1ccccc1CN1C(=O)CS/C1=N/N=C/c1ccco1`, the inhibition is reported as inconclusive: -5.1%.
In the case of `O=C(NNc1ccc(F)cc1F)c1c(F)cccc1Cl`, the inhibition is reported as inconclusive: -36.7%.
For `CC(C)OCCCNC(=O)[C@H]1N2C(=O)c3ccccc3C2SC1(C)C` (some centres undefined), the inhibition was inactive: -7.8%.
With `Cc1csc(NC(=O)c2cccnc2Cl)n1` the inhibition was inconclusive: 11.5%.
With `Cc1ccc(N2C(=O)[C@@H]3C(C(=O)CN4C(=O)c5ccccc5C4=O)=NN[C@@H]3C2=O)c(C)c1` the inhibition was inconclusive: -40.5%.
In the case of `c1ccc(CN2CCC(N3CCC(N4CCCCCC4)CC3)CC2)cc1`, the inhibition is reported as inconclusive: 3.8%.
With `O=S(=O)(NC1CC2CCC1C2)c1ccc(Br)s1` (centres undefined) the inhibition was inconclusive: -17%.
For `COc1ccccc1NS(=O)(=O)c1ccc(C)c(C(=O)NCCCN2CCCC2=O)c1`, the inhibition was inactive: 6.3%.
With `COc1ccc(OC)c2sc(N3CCN(C(=O)c4ccc([N+](=O)[O-])s4)CC3)nc12` the inhibition was inconclusive: 28.2%.
`Cc1nn(-c2ccccc2)c(C)c1/C=N/NC(=O)c1cnccn1` was tested, and the inhibition was inconclusive: 152%.
In the case of `CCOC(=O)N1CCN(Cc2c(O)ccc3ccccc23)CC1`, the inhibition is reported as inconclusive: 2.8%.
In the case of `CCCc1cc(CCC)n2nc(N)nc2n1`, the inhibition is reported as inactive: -4.8%.
In the case of `CCC(=NCc1cc(OC)cc(OC)c1)c1c(O)[nH]c(=O)[nH]c1=O`, the inhibition is reported as inconclusive: -12.7%.
For `CCCCN(C(=O)c1cc(-c2ccco2)nc2ccccc12)c1c(N)n(CCC)c(=O)[nH]c1=O`, the inhibition was inactive: 0.5%.
For `COc1ccc2nc(NC(=O)CSC(C)C(=O)Nc3cc(C)on3)sc2c1` (centres undefined), the inhibition was inconclusive: 3%.
In the case of `CC(C)c1ccc(N2CCN(C(=O)c3ccccc3NC(=O)/C=C\C(=O)O)CC2)cc1`, the inhibition is reported as inconclusive: -49.3%.
For `O=C(Nc1cc(F)ccc1F)c1ccc(-n2cncn2)c([N+](=O)[O-])c1`, the inhibition was inconclusive: -328%.
In the case of `CNC(=O)c1ccccc1-c1ccccc1`, the inhibition is reported as inconclusive: 4%.
In the case of `CC(=O)NNC(=O)c1csc(-c2csc(C)n2)n1`, the inhibition is reported as inconclusive: -39.6%.
`C/C(CC1CC(COCCC(C)C)OC1=O)=N\NC(N)=S` (centres undefined) was tested, and the inhibition was inactive: 1.3%.
For `CCN(Cc1ccccc1)C1CCN(Cc2ccccc2)CC1`, the inhibition was inconclusive: 0%.
For `COC(=O)Cc1c(C)c2ccc(OCC(=O)N3CCC(C)CC3)c(C)c2oc1=O`, the inhibition was inactive: -3.8%.
`O=C(c1ccccc1)c1ccccc1C(=O)c1ccccc1` was tested, and the inhibition was inactive: 6.6% and inactive: -36.7%.
For `COC(=O)c1ccncc1C(=O)Nc1ccc(Oc2ncc(C(F)(F)F)cc2Cl)cc1`, the inhibition was inconclusive: -9%.
For `CC(=O)Nc1ccc2c(c1)CN(c1cc(C)ccc1C)CO2`, the inhibition was inactive: -2.2%.
With `O=C1NC(=O)N(CC2CCCO2)C(=O)/C1=C/c1cccs1` (centres undefined) the inhibition was inconclusive: 24.8%.
`CCn1c(Oc2ccccc2C)nc2c1c(=O)n(C)c(=O)n2C` was tested, and the inhibition was inconclusive: 33.5%.
For `COc1ccccc1Nc1ccc(NS(=O)(=O)c2ccc(C(C)=O)cc2)cc1`, the inhibition was inconclusive: -110%.
`COc1ccc(C(=O)C2CCCN(Cc3c(O)cccc3OC)C2)cc1OC` (centres undefined) was tested, and the inhibition was active: 36.9%.
With `COc1ccc(N2CCN(C(=S)Nc3cccc(OC)c3)CC2)cc1` the inhibition was inconclusive: -33.9%.
In the case of `Cc1ccc(NC(=O)C(C)SCc2nc3sc4c(c3c(=O)[nH]2)CCCC4)nc1` (centres undefined), the inhibition is reported as inconclusive: 0.6%.
For `CN(C(=O)c1ccccc1-c1ccccc1C(=O)O)c1ccccc1`, the inhibition was inconclusive: -12%.
`Cc1onc(-c2ccc(Cl)cc2Cl)c1-c1csc(COc2ccccc2)n1` was tested, and the inhibition was inconclusive: 31%.
`Cc1ccc(C(C)NC(=O)C2CCCC2)cc1C` (centres undefined) was tested, and the inhibition was inconclusive: -8.8%.
With `CC(C)CNC(=O)C(=O)NCC1CCCN1S(=O)(=O)c1cccs1` (centres undefined) the inhibition was inactive: -3.4%.
In the case of `Cc1ccc(NC(=S)N2CCCC(c3ccccc3)=N2)cc1`, the inhibition is reported as inconclusive: -13.2%.
With `NS(=O)(=O)c1cc2c(cc1Cl)NC(CC1CCCC1)NS2(=O)=O` (centres undefined) the inhibition was inconclusive: -14%.
`O=C(NC12CC3CC(CC(C3)C1)C2)N1CCN(c2ccccc2)CC1` was tested, and the inhibition was inconclusive: 9.6%.
With `CC1CCc2c(sc3nc4n(c(=O)c23)CCS4)C1` (centres undefined) the inhibition was active: 43.2%.
In the case of `CSc1ccc(NC(=O)/C=C/C(=O)O)cc1`, the inhibition is reported as inconclusive: 34.8%.
For `Nc1nc2cc(S(=O)(=O)N3CCOCC3)ccc2o1`, the inhibition was inactive: -2.9%.
`O=C1[C@@H]2CSCN2C(=O)CN1Cc1ccc(F)cc1` was tested, and the inhibition was inconclusive: 110%.
In the case of `CCN1C(=O)c2cccc3c(NC(=O)c4ccccc4)ccc1c23`, the inhibition is reported as inactive: -9.1%.
With `CCn1c(C(=O)O)c(CC(=O)N(C)c2ccc(OC)cc2OC)c2ccccc21` the inhibition was inactive: 5.2%.
`CCCc1cc(=O)oc2c(C)c(OCc3nn[nH]n3)ccc12` was tested, and the inhibition was inconclusive: 30%.
For `CCOC(=O)C(O)(c1ccc(N=c2ccccn2C)cc1)C(F)(F)F` (centres undefined), the inhibition was inconclusive: 125%.
For `O=CN1CCN(C(=O)c2cccc([N+](=O)[O-])c2)CC1`, the inhibition was inconclusive: 12.2%.
In the case of `COc1cc(C(=O)OCC(=O)Nc2ccc(N3CCOCC3)cc2)ccc1OCC(C)C`, the inhibition is reported as inconclusive: -3%.
With `O=C(NCc1cccnc1)C1CC(c2ccccc2Cl)=NO1` (centres undefined) the inhibition was inconclusive: 46%.
For `CC(C)OC(=O)CCC(=O)Nc1nc2ccccc2s1`, the inhibition was inactive: -3.5%.
`CN(C)S(=O)(=O)c1ccc(NC(=O)CSc2nnc(-c3ccco3)o2)cc1` was tested, and the inhibition was inconclusive: 14.1%.
With `COc1ccccc1C(c1nnnn1Cc1ccccc1)N1CCN(C2CCCC2)CC1` (centres undefined) the inhibition was inconclusive: 11%.
With `Cc1ccc2nc(Nc3ccccc3)cc(C)c2c1` the inhibition was inconclusive: -23.9%.
In the case of `COc1ccc(C(=O)NCc2nnc(SCC(=O)N3CCCCC3)o2)cc1OC`, the inhibition is reported as inconclusive: -3.1%.
`COc1cccc(C(N)=O)c1OC(=O)Cc1ccccc1F` was tested, and the inhibition was inconclusive: -2.8%.
With `Cc1cccc(C)c1NC(=O)Nc1ccc(S(N)(=O)=O)cc1` the inhibition was inconclusive: 6.4%.
For `Cc1c[n+]([O-])ccc1Oc1ccc([N+](=O)[O-])cc1`, the inhibition was inactive: -6.3%.
For `CC(=O)c1cccc(S(=O)(=O)NCC2CCCCC2)c1`, the inhibition was inactive: -1.9%.
For `CCCC(=O)Nc1nnc(S(=O)(=O)N(CC)c2ccc(OC)cc2)s1`, the inhibition was inactive: 18.6%.
With `CSc1ncccc1C(=O)OCc1nc2ccsc2c(=O)[nH]1` the inhibition was inconclusive: 18%.
With `COCCn1cc(C(=O)NCCCN2CCC(C)CC2)c2c3ccccc3n(C)c2c1=O` the inhibition was inactive: -0.5%.
For `Cc1ccccc1C(=O)Nc1ccc2c(c1)OCCO2`, the inhibition was inconclusive: -51.3%.
In the case of `CCOC(=O)c1[nH]c2ccc(F)cc2c1N=C(C)N(CC)CC`, the inhibition is reported as inconclusive: 12.4%.
With `Cc1cccc(C)c1OCc1nnc2c3cnn(C)c3ncn12` the inhibition was inconclusive: -4.5%.
For `CCCn1c(C)cc(C(=O)COc2ccc(C)nc2[N+](=O)[O-])c1C`, the inhibition was inactive: -3.1%.
`CCn1c(-c2ccc[nH]c2=O)nc2ccccc21` was tested, and the inhibition was inactive: -0.4%.
